Experimental data: PubChem BioAssay AID2685 (National Center for Advancing Translational Sciences (NCATS), 2010)
Screen size: about 320,000 compounds; about 2,100 (0.66%) were called active. Inconclusive means that the source gave no clear call. Such entries were picked first, then a sample of the others. Calls follow the shape of the dose curve; as a rule, active = well fitted inhibition curve with a large enough effect in the signal ratio, with a control signal flat (not every such curve was filed as active); inconclusive = small, poorly fitted or top-dose-only effect, or effect the other way, or a change in a side signal; inactive = flat fitted curve, though single readings scatter; the % refers to the signal ratio. Potencies of inconclusive entries are doubtful fits and often do not repeat.

Assay: qHTS Assay for Lipid Storage Modulators in Drosophila S3 Cells
Settings: BODIPY lipid droplet fluorescence, 18-24 h, cells fed with added oleic acid; lipid storage change, negative = inhibition: at 46.1 µM (top of the series) unless noted
In short: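 Drosophila S3 cells loaded with oleic acid (400 uM, as added) and compounds at several concentrations; lipid droplets imaged by 488-nm laser-scanning cytometry, 500–530 nm intensity and object ratio to cell channel. Percent activity normalized to 20 uM Triacsin C.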
% is scaled to controls: 0 for no effect and ±100 for the full control effect; potency is read from the fitted curve at half-maximal effect.

Structure (SMILES) | lipid storage change, negative = inhibition | Potency
COC(=O)c1ccccc1NC(=O)CCC(=O)N1CCSc2ccccc21 | inconclusive: 2.48% | 
COC(=O)/C(=C/c1cccc([N+](=O)[O-])c1)NC(=O)c1ccc(OC)cc1 |  | inconclusive: 6.51 µM [falling, partial curve, poor fit]
CC1CCN(C(=O)CSC2=NS(=O)(=O)c3cc(F)ccc3N2)CC1 | inconclusive: 68.5% | 
Cc1ccnc(NS(=O)(=O)c2ccc(NC(=O)c3cc(=O)c4ccccc4o3)cc2)n1 | inconclusive: 33.6% | 
COc1ccnc(Nc2ccc(C)c(C)c2)c1C#N | inconclusive: -7.76% | 
Cc1nc(-c2ccc(F)cc2)c(CC(=O)Nc2cccc(S(=O)(=O)N3CCOCC3)c2)s1 |  | inconclusive: 20.6 µM [rising, single point]
CC(=O)Nc1cccc(C(=O)N/N=C/c2ccccc2F)c1 |  | inconclusive: 9.2 µM [activator, partial curve, poor fit]
COc1ccc(CN2CCCCCC2)cc1 |  | inconclusive: 23.1 µM [falling, single point]
CC(C)COc1ccc(C(=O)NNC(=O)c2ccc(=O)[nH]c2)cc1 | inconclusive: -25.7% | 
CN1CCN(C(=S)c2ccc(Cl)cc2)CC1 | inconclusive: -165% | 
CN(c1ccccc1)S(=O)(=O)c1cccc(NC(=O)Cc2ccc(Cl)cc2)c1 | inconclusive: 24.4% | 
O=C(Nc1ccc(C(=O)OC2CCCCC2)cc1)c1ccncc1 | inconclusive: -161% | 
CNC(=S)c1cc(C(C)(C)C)c(O)c(C(C)(C)C)c1 | inconclusive: -28.6% | 
CCc1nnc(NC(=O)CSc2nc3ccccc3s2)s1 | inconclusive: 55.9% | 
COCCNC(=S)N/N=C(\C)c1cccc([N+](=O)[O-])c1 |  | inconclusive: 13 µM [activator, partial curve, poor fit]
Brc1c(CSc2nc3ccccc3o2)nc2ncccn12 | inconclusive: 7.17% | 
Cn1cc(-c2nc3ccccc3[nH]2)c2ccccc21 | inconclusive: -19.6% | 
O=C(CCNC(=O)c1ccc([N+](=O)[O-])cc1)NCc1ccccc1 | inconclusive | 
CCOC(=O)C1(Cc2cccc(Cl)c2)CCCN(C(=O)c2cc(C)n(C)n2)C1 (stereo not given) | inactive | 
C/C(=N\Nc1ccccc1)c1cccc(N)c1 | inconclusive: 84.5% | 
COC(=O)[C@H]1C[C@@H](c2ccccc2)[C@H](C)C1(C)C | inconclusive: -1.53% | 
COc1ccc(C(=O)NCc2ccc(N3CCN(C)CC3)cc2)cc1 | inconclusive: 1.23% | 
NS(=O)(=O)c1ccc(Sc2ccc3ccccc3c2)nc1 | inconclusive: 14.1% | 
COc1ccc(C(=O)Nc2ccc3c(c2)OCCO3)cc1S(=O)(=O)N1CCOCC1 |  | inconclusive: 0.0731 µM [activator, partial curve]
O=C(Cn1c(NCCCO)nc2ccccc21)c1ccc(Br)cc1 | inconclusive: 13.1% | 

Four compounds picked at random from those above, as already listed:
Structure (SMILES) | lipid storage change, negative = inhibition | Potency
COC(=O)c1ccccc1NC(=O)CCC(=O)N1CCSc2ccccc21 | inconclusive: 2.48% | 
COC(=O)[C@H]1C[C@@H](c2ccccc2)[C@H](C)C1(C)C | inconclusive: -1.53% | 
CNC(=S)c1cc(C(C)(C)C)c(O)c(C(C)(C)C)c1 | inconclusive: -28.6% | 
COc1ccc(C(=O)Nc2ccc3c(c2)OCCO3)cc1S(=O)(=O)N1CCOCC1 |  | inconclusive: 0.0731 µM [activator, partial curve]

Later entries.

Structure (SMILES) | lipid storage change, negative = inhibition | Potency
Cn1c(CN2CCCC2)nc2cc(NC(=O)c3ccco3)ccc21 |  | inconclusive: 0.651 µM [cytotoxic, full curve, poor fit]
COc1ccc(N2CCN(Cc3cc4c(cc3Br)OCCO4)CC2)cc1 |  | inconclusive: 29.1 µM [falling, single point]
Cc1c(Cl)cccc1Nc1ccccc1C(=O)O | inconclusive: -5.26% | 
N#CC1=C(N)C(C#N)(C#N)C(c2cccnc2)C2CC(c3ccccc3)CC=C12 (stereo not given) |  | inconclusive: 0.103 µM [falling, full curve, poor fit]
COc1ccc(CCCCCCOCc2ccccc2)cc1 |  | inconclusive: 29.1 µM [activator, single point]
COc1ccc(Cl)cc1-c1nc(-c2ccncc2)no1 |  | inconclusive: 1.64 µM [activator, partial curve]
Cc1cc2cc3c(cc2nc1SCc1ccccn1)OCCO3 |  | inconclusive: 5.8 µM [activator, partial curve, poor fit]
O=C(NC1CCCCCCC1)c1ccccc1O | inconclusive: 15.1% | 
CCCOc1ccc(N2C(=O)CC(N3CCC(C(=O)OCC)CC3)C2=O)cc1 (stereo not given) | inconclusive: 40.4% | 
CSc1oc(-c2ccco2)nc1S(=O)(=O)c1ccccc1 |  | inconclusive: 6.51 µM [activator, partial curve, poor fit]
COCC(=O)Nc1nc2ccccc2s1 | inconclusive: 0.624% | 
CCC1CCCCN1S(=O)(=O)c1ccc(C(=O)Nc2nnc(-c3cccs3)o2)cc1 (stereo not given) |  | inconclusive: 29.1 µM [falling, single point]
CCCCn1c(N)c(N(CC)C(=O)c2cnc(C)cn2)c(=O)[nH]c1=O |  | inconclusive: 1.46 µM [falling, partial curve]
O=C(CCCn1c(=O)c2sccc2n(CC(=O)NCC2CCCO2)c1=O)NCc1ccco1 (stereo not given) | inactive | 
Cc1ccc(Cl)cc1N1CCN(C(=O)c2cn(C)c(=O)c3c2c2ccccc2n3C)CC1 |  | inconclusive: 1.84 µM [activator, full curve]
CO/N=C/C(=N\Nc1cc(OC)cc(OC)c1)C(=O)c1ccccc1 | inconclusive: 36.3% | 
O=C(NCCC1=CCCCC1)C1CCCN(S(=O)(=O)c2cnc[nH]2)C1 (stereo not given) | inconclusive: 4.89% | 
CN(C(=O)CSc1nc(-c2ccccc2)c(-c2ccccc2)o1)C1CCS(=O)(=O)C1 (stereo not given) | inconclusive: 33.5% | 
CCC(CC)C(=O)NCCNC(=O)C(CC)CC | inconclusive: -34.7% | 
c1ccc(-n2nnc(-c3cccnc3)n2)cc1 | inconclusive: -24.7% | 
CN1CCN(C(=O)c2ccc3ccccc3c2)CC1 | inconclusive: 11.6% | 
Cc1ccc2c(CN3CCN(C(=O)c4ccco4)CC3)cc(=O)oc2c1C | inconclusive: 38.8% | 
O=C(NC(=O)N1CCCCCC1)c1ccccc1 |  | inconclusive: 23.1 µM [activator, single point]
O=C(O)CC(NC(=O)C12CC3CC(CC(C3)C1)C2)c1ccc(OC2CCCC2)cc1 (stereo not given) | inconclusive: -4.07% | 
Cc1cc(C)nc(SCC(=O)Nc2ccc(S(=O)(=O)Nc3ncccn3)cc2)n1 | inconclusive: -5.13% | 
